In US6376537B1, “Cancer treatment” (priority 2000, dated 2002):
At least one compound was matched to its structure with a doubt left.

Experiments:
[1] = test system: hepatocellular carcinoma; assay: Liver cancer case report, oral Simvastatin treatment; assay type: in vivo, human
Experimental: (§1) Its use according to this invention in the treatment of malignant disease consists of daily administration of an 80 mg tablet orally.
(§2) In order to avoid unforeseen side effects, the treatment is initiated at about 20 mg dose tablet once daily for one week. The dose then is increased to about 40 mg once daily for an additional week. The following week the dose is increased to about 60 mg and on the fourth week the dose is increased to about 80 mg (two tablets of 40 mg each), and to remain so indefinitely. The intervals for stepping up the dosage can vary.

[2] = test system: metastatic colon cancer; assay: Colon cancer case reports, oral Simvastatin treatment; assay type: in vivo, human
Experimental: as §1, §2
Case #1: business person who underwent hemicolectomy for adenocarcinoma of the colon in 1993 was presented in 1995 to Cedars Sinai Medical Center Liver Team for possible cryotherapy. At that time they had multiple masses in both lobes of the liver as well as outside their liver and multiple nodules in both lungs. Clinically they were bedridden, weak and malnourished. They were rejected as a suitable candidate for needle cryotherapy because of their advanced disease, and was considered unrescuable with a life expectancy of several weeks.
The dose was increased by 20 mg increments every two weeks up to the dose of 80 mg. […] […] gained 27 pounds, became normally active, including extensive travel around the world.
Case #2: person underwent hemicolectomy for cancer of the colon in 1995 because of intestinal obstruction. […] Oncology consultation found their beyond rescue with a life expectancy of several months. They were transferred to a nursing home where they were bedridden, malnourished and totally dependent.
Case #3: person retired artist with metastatic liver disease of colon carcinoma was seen because of rapid weight loss, decline in functional status and jaundice. Because of their advanced age, they refused any standard oncological intervention but agreed to take Simvastatin.

[3] = Case #1, over three to four months

With CCC(C)(C)C(=O)O[C@H]1C[C@@H](C)C=C2C=C[C@H](C)[C@H](CC[C@@H]3C[C@@H](O)CC(=O)O3)[C@H]21 [Simvastatin] the “overall outcome, diffused metastatic liver cancer” value ([1]; 80 mg tablet orally daily) was “an apparent cure was achieved”, the “adrenal masses (metastases)” value ([1]; liver cancer case) was “first adrenal mass resolved by June of 1999, and the second by March 2000” and the liver mass size ([1]; liver cancer case) was “progressively declined in size”. The “nutritional status and functional capacity” value ([1]; liver cancer case) was “returned to normal”, the “cancer detectable by imaging (MRI, CT scan, ultrasound, radio nucleotide scan)” value ([1]; liver cancer case, at the present time) was “no cancer can be detected by any imaging studies” and the “life expectancy, terminal metastatic colon cancer” value ([2]; 80 mg tablet orally daily) was “life expectancy of several years over that previously described”. The “liver metastasis on imaging” value ([2]; Case #1) was “many, but not all, of their liver metastasis completely resolved”, the survival ([2]; Case #1, life expectancy of several weeks at start (March 1995)) was “succumbed to their disease four years later” and the functional capacity [2, 3] was “restored to normal”. The liver function tests [2, 3] was “improved”, the functional status ([2]; Case #2) was “completely independent and ambulatory” and the survival ([2]; Case #2, started 1995, life expectancy of several months at start) was “died of pneumonia in November of 1999”. The liver function tests ([2]; Case #2, within several months) was “improvement in liver function tests”, the weight and strength ([2]; Case #2, within several months) was “regained weight and strength” and the “liver function test and jaundice” value ([2]; Case #3) was “markedly improved”. For the same molecule, the “weight and energy level” value ([2]; Case #3) was “progressively increased” and the functional status ([2]; Case #3, several months after initiation) was “independent and ambulatory”.
